The values that follow come from article PMC4081824.

By UniProt entry, the sequences of proteins in these tests, tags left out. Residues count along the entry.
UniProt Q12846: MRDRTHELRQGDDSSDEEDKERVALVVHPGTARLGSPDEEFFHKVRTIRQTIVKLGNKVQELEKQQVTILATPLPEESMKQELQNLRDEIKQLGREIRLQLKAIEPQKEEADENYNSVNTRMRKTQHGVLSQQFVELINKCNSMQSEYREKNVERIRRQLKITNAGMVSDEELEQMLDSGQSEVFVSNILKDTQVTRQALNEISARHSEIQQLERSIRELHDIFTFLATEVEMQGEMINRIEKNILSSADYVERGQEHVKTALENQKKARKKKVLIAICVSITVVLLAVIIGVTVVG
UniProt Q5ZSQ3, residues 501-647: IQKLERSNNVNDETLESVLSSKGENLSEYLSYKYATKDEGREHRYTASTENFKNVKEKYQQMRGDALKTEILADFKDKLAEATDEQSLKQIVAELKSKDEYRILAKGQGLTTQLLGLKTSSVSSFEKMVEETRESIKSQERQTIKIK

These are yes or no findings as the source states them, for the method shown. Binding seen in cells or lysates may run through a third protein. Some binding calls cover weakened binding; strength is not graded here. For some assays here: Tags and fused reporters may be left off the sequences shown.

One assay deals with FLAG-tagged syntaxin 4 (UniProt Q12846). Put plainly: co-IP.
In another assay the target is T1, FLAG-tagged syntaxin 3 (UniProt Q13277).
T1 sequence: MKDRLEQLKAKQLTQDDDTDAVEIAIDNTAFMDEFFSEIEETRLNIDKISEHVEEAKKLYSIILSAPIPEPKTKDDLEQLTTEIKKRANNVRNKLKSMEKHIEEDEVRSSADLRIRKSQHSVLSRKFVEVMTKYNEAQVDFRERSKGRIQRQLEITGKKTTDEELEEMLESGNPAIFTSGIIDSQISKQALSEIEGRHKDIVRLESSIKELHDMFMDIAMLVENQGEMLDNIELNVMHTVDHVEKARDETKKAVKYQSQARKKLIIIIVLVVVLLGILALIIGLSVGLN
Put plainly: co-IP.

Take “GFP-tagged DrrA 501-647 (LEPR region, PI4P-binding domain) (from UniProt Q5ZSQ3 501-647) (domain or fragment)”: the binding entry with FLAG-tagged syntaxin 4 and with FLAG-tagged syntaxin 3 was “binds” throughout.
